Laboratory results: the supplement of paper PMC12823440, “Inhibitors supercharge kinase turnover through native proteolytic circuits” (Nature, 2025)
Where a name gives a salt, the structure may show the parent alone. The list shows a part of the results. Hit calls seldom repeat between salt and free forms of one compound.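 In K562 cells expressing nanoluciferase-fused kinases, luminescence was recorded at 4 h intervals between 2 and 18 h, normalized as percent of control with DMSO at 100% and a positive control at 0%. A significant (2 sigma) signal drop marks a time point as decreased. The authors' rule for a hit is not shown and takes in more than the number of time points.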

What follows are molecules tested against EGFR (UniProt P00533) (assay: number of time points (of 5) at which kinase-Nluc abundance scored as decreased, DMSO-normalised (count); higher = more persistent destabilization). Conditions: K562; 2-18 h.

| Compound | number of time points |
| --- | --- |
| OCCN(CCO)c1ccc(C(c2ccc(Cl)cc2)c2ccc(N(CCO)CCO)cc2)cc1 (10 µM) | 0 |
| CCOc1ccccc1C=C1C(=O)Nc2ccccc21 (10 µM) | 0 |
| COc1ncc(Nc2ncc([C@@H](C)N3CCN(S(C)(=O)=O)CC3)cc2-c2nc(C)nc(N)n2)cc1F (10 µM) | 0 |
| O=C(CO)N1CCC(c2n[nH]c(-c3ccc(Cl)cc3)c2-c2ccncn2)CC1 (10 µM) | 0 |
| Cn1ncc(Cl)c1-c1cc(C(=O)N[C@H](CN)Cc2ccc(F)c(F)c2)sc1Cl (10 µM) | 0 |
| O=c1ccc2ccc(O)c(O)c2o1 [Daphnetin] (10 µM) | 0 |
| O=C(Nc1ccc(Cl)c(Cl)c1)Nc1ccc2nnsc2c1 (10 µM) | 0 |
| O=C(O)c1cc(O)c2c(c1)[C@@H]([C@H]1c3cc(C(=O)O)cc(O)c3C(=O)c3c(O[C@@H]4O[C@H](CO)[C@@H](O)[C@H](O)[C@H]4O)cccc31)c1cccc(O[C@@H]3O[C@H](CO)[C@@H](O)[C@H](O)[C@H]3O)c1C2=O [Sennoside B] (2.5 µM) | 0 |
| O=c1nc(N2CCOCC2)oc2c(-c3cccc4c3sc3ccccc34)cccc12 (10 µM) | 0 |
| O=C(Nc1cccc(-c2nncn2C2CC2)c1)c1cc(-n2cnc(C3CC3)c2)ccn1 (10 µM) | 0 |
| CSc1ccc(CN2CCCC(Nc3ccc4[nH]ncc4c3)C2)cc1 (stereo unspecified) [Rho-Kinase-IN-1] (10 µM) | 0 |
| Oc1ccccc1C(=S)N1CCCC1 (10 µM) | 0 |
| COC(=O)N[C@@H](C)CNc1nccc(-c2cn(C(C)C)nc2-c2cc(Cl)cc(NS(C)(=O)=O)c2F)n1 [Encorafenib] (10 µM) | 0 |
| C=CS(=O)(=O)c1ccc(Nc2nc(OCC3CCCCC3)c3[nH]cnc3n2)cc1 (2.5 µM) | 0 |
| O=c1[nH]ccc2cc(OC3CCNCC3)ccc12 (10 µM) | 0 |

The molecules below were run against EGFR_G719S (UniProt P00533) in the same assay as above. Conditions: K562; 2-18 h.

| Compound | number of time points |
| --- | --- |
| O=C1NC(=O)C(c2cn(-c3ccccc3)nc2-c2ccc(F)cc2)N1 (stereo unspecified) (10 µM) | 0 |
| O=[N+]([O-])c1ccc(Sc2cccc[n+]2[O-])c2nonc12 (2.5 µM) | 0 |
| COc1nc(-c2ccnc(NC(=O)C3CC3)c2)sc1C(N)=O [GSK-3β inhibitor 2] (10 µM) | 1 |
| CCN1/C(=C/C(C)=O)Sc2ccc(OC)cc21 (10 µM) | 0 |
| Nc1cccc(S(=O)(=O)N2CCCN(S(=O)(=O)c3ccc4c(c3)OCCO4)CC2)c1 (10 µM) | 0 |
| Nc1ncc(-c2ccc(C(=O)N3CCNCC3)cc2)nc1-c1ccc(C(F)(F)F)cc1 (10 µM) | 0 |
| CC[C@H](Nc1ncnc2[nH]cnc12)c1oc2ccccc2c(=O)c1-c1cccc(F)c1 [Tenalisib] (10 µM) | 0 |
| CC(C)(O)[C@@H]1CC[C@](C)([C@H]2[C@@H](O)C[C@@]3(C)[C@@H]4C[C@H](O[C@@H]5O[C@H](CO)[C@@H](O)[C@H](O)[C@H]5O)[C@H]5C(C)(C)[C@@H](O[C@@H]6OC[C@@H](O)[C@H](O)[C@H]6O[C@@H]6O[C@H](CO)[C@@H](O)[C@H](O)[C@H]6O)CC[C@@]56C[C@@]46CC[C@]23C)O1 [Astragaloside VI] (10 µM) | 0 |
| CC(=O)Nc1nc2ccc(-c3cnc(C)c(NC(=O)OC4CCCCC4)c3)cc2s1 (10 µM) | 0 |
| COc1ccccc1/C=C1\C(=O)Nc2ccccc21 (10 µM) | 0 |
| CC1(N)CCN(c2cnc3c(-c4cccc(Cl)c4Cl)[nH]nc3n2)CC1 (2.5 µM) | 0 |
| CC(C)C[C@H](NC(=O)[C@H](CCCCN)NC(=O)[C@H](CO)NC(=O)[C@@H](N)CC(C)C)C(N)=O [LSKL, Inhibitor of Thrombospondin (TSP-1) (TFA)] (10 µM) | 0 |
| CN1CC[C@H](c2c(O)cc(O)c3c(=O)cc(-c4ccc(C(F)(F)F)cc4Cl)oc23)[C@H]1CO [(2S,3R)-Voruciclib (hydrochloride)] (2.5 µM) | 0 |
| C[C@H]1[C@H](OC(=O)CCC(=O)O)O[C@@H]2O[C@@]3(C)CC[C@H]4[C@H](C)CC[C@@H]1[C@@]24OO3 [Artesunate] (2.5 µM) | 0 |
| c1ccc(-c2nn3c(c2-c2ccnc4cc(OCCN5CCOCC5)ccc24)CCC3)nc1 (10 µM) | 0 |
| COc1cc(N2CCC(N(C)C)CC2)ccc1Nc1ncc(Cl)c(Nc2ccccc2P(C)(C)=O)n1 (2.5 µM) | 0 |

Shown field by field: entries from further up.
CN1CC[C@H](c2c(O)cc(O)c3c(=O)cc(-c4ccc(C(F)(F)F)cc4Cl)oc23)[C@H]1CO [(2S,3R)-Voruciclib (hydrochloride)] (2.5 µM)
  number of time points: 0
C[C@H]1[C@H](OC(=O)CCC(=O)O)O[C@@H]2O[C@@]3(C)CC[C@H]4[C@H](C)CC[C@@H]1[C@@]24OO3 [Artesunate] (2.5 µM)
  number of time points: 0
